The nature of the series: general procedure: Fmoc solid-phase peptide synthesis; Fmoc-Leu-O-Clt resin; DCC/HOBt; HBTU for one peptide. The following applies: whole synthesis, scale 0.25 mmol.

Drawing on patent publication US7375074B2 (priority 2001, dated 2008), this text covers isolated mass for one substance.

The substance “Fmoc-Trp-Tyr-Lys-His-Val-Ala-Ser-Pro-Arg-Tyr-His-Thr-Val-Gly-Arg-Ala-Ala-Gly-Leu-Leu-Met-Gly-Leu” came in with an isolated mass of 9.7 mg.
